Results from PubChem BioAssay AID504467 (National Center for Advancing Translational Sciences (NCATS), 2011).
Among all 330,000 compounds or so, about 7,700 (2.3%) were called active. This list was built around the results that the source calls inconclusive (neither active nor inactive); the mix of calls is not that of the screen. The call rests on the fitted dose curve; in most records, active means well fitted inhibition curve with a large enough effect; inconclusive means small, poorly fitted or top-dose-only effect, or effect the other way; inactive means flat fitted curve, though single readings scatter. Where the call is inconclusive, the potency comes from a doubtful curve fit.

experiment: qHTS screen for small molecules that inhibit ELG1-dependent DNA repair in human embryonic kidney (HEK293T) cells expressing luciferase-tagged ELG1; settings: HEK293T ELG1-luciferase reporter, luminescence, 16 h, DNA damage induced by 5-fluorouridine; activity change, negative = inhibition: at 46.1 µM (top of the series); further: nearly all actives have a fitted effect of over 55% in size
Procedure, shortened: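 Overnight (16 hr) co-exposure of 2,000 cells/well to 5-fluorouridine and compound at 37 °C preceded detection. Luciferase was quantified via ONE-Glo luminescence; loss of signal denotes inhibition.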
On the % scale 0 is the no-effect control and ±100 the full control effect; potency means the concentration at half of the fitted maximal effect.

SMILES | activity change, negative = inhibition | Potency
CN(C)S(=O)(=O)c1cccc(C(=O)Nc2ccc(C(=O)Nc3cccc(S(N)(=O)=O)c3)cc2)c1 | inactive: 12.9% | 
CCOc1cc(/C=N/NC(N)=O)ccc1OCC(=O)Nc1ccc(C)c(C)c1 |  | inconclusive: 18.3 µM [inhibitor, partial curve]
O=C(CC(Nc1ccc(F)cc1)C(=O)O)c1ccccc1 (stereo unspecified) |  | inconclusive: 8.2 µM [activator, partial curve]
Cc1csc(NC(=O)c2ccc(C(=O)Nc3nc(C)cs3)cc2)n1 |  | inconclusive: 7.3 µM [activator, partial curve]
O=C1NC2(CCCC2)C(=O)N1CC(=O)N(Cc1ccccc1)c1ccccc1 | inactive: -1.66% | 
Cc1c(C(=O)O)sc2nc(-c3cccs3)cc(C(F)(F)F)c12 | inactive: -17.7% | 
O=C(Nc1ccc(S(=O)(=O)N2CCCC2)cc1)c1ccc(Br)o1 | inactive: -0.693% | 
O=C(COC(=O)c1ccccc1C(=O)c1ccccc1)c1ccco1 |  | inconclusive: 29.1 µM [activator, single point]
CCOC(=O)c1ccc2nc(NC(C)=O)sc2c1 |  | inconclusive: 14.6 µM [activator, partial curve]
Cc1ccccc1NS(=O)(=O)c1cccc(-c2nnc(-c3ccccc3)o2)c1 |  | inconclusive: 35.5 µM [inhibitor, single point]
CCOC(=O)c1c(-c2ccc(F)cc2)csc1NC(=O)CN1C(=O)NC2(CCCCC2C)C1=O (stereo unspecified) |  | inconclusive: 23.1 µM [inhibitor, single point]
COc1cc(CN2CCC(CO)(CCOc3ccccc3)CC2)cc(OC)c1OC | inactive: 3.68% | 
O=c1oc(Nc2ccccc2Cl)nc2ccccc12 |  | inconclusive: 18.3 µM [activator, partial curve]
CC(C)Cc1nc2oc3c(NCCCN4CCOCC4)ncnc3c2c2c1CCC2 | inactive: -21.4% | 
N#CCC(=O)Nc1ccc(C(=O)OC(C(=O)Nc2cc(C(F)(F)F)ccc2Cl)c2ccccc2)cc1 (stereo unspecified) | inactive: -21.6% | 
COc1ccc(NC(=O)c2ccc3snnc3c2)cc1 |  | inconclusive: 14.6 µM [activator, partial curve]
O=C(CSc1cccc[n+]1[O-])c1cc2ccccc2o1 |  | inconclusive: 16.4 µM [activator, partial curve]
COC(C(=O)NC(C(C)C)C(C)C)c1ccccc1 (stereo unspecified) | inactive: 0.556% | 
N#CC1(NC(=O)CSc2nncn2-c2ccccc2F)CCCC1 |  | inconclusive: 16.4 µM [activator, single point]
Cn1c(C(=O)N2CCCC(C(=O)NCCCSC3CCCCC3)C2)cc2sccc21 (stereo unspecified) |  | inconclusive: 18.4 µM [inhibitor, single point]
COCCn1c(C)cc(C(=O)COC(=O)c2cccc(O)c2)c1C |  | inconclusive: 20.6 µM [activator, partial curve]
COc1ccc(C(=O)COC(=O)c2ccc3c(c2)OCO3)c(OC)c1 |  | inconclusive: 25.9 µM [activator, single point]
O=S(=O)(c1ccc(Cl)c(NC(=S)N/N=C/c2ccc(O)cc2)c1)N1CCOCC1 |  | active: 23.1 µM
COc1c(S(=O)(=O)N2CCN(C(=O)c3ccco3)CC2)ccc(Cl)c1Cl | inactive: -15.8% | 

SMILES | activity change, negative = inhibition | Potency
Cc1cc(NC(=O)CCCN2C(=O)/C(=C/c3cccs3)SC2=S)no1 |  | inconclusive: 32.6 µM [activator, partial curve, poor fit]
COc1ccc(CCC(=O)N2CCN(S(=O)(=O)c3ccc(C)cc3)CC2)cc1 | inactive: -18.6% | 
O=C(CN1C2=NCCCN2c2ccccc21)c1ccc(Cl)cc1Cl | inactive: -5.06% | 
O=C(NCc1ccco1)c1ccc(Cn2c(=O)c3ccccc3n(Cc3ccc(Cl)cc3)c2=O)cc1 |  | inconclusive: 32.6 µM [inhibitor, partial curve, poor fit]
O=C(CSc1nnc(-c2cccs2)o1)N1CCCCC1 |  | inconclusive: 9.2 µM [activator, partial curve]
CCCN(C(=O)COC(=O)C12CCC(=O)N1c1ccccc1S2)c1c(N)n(Cc2ccccc2)c(=O)[nH]c1=O (stereo unspecified) | inactive: -0.541% | 
CN(CCO)c1nc(N)c2c(N)nc3c(c2c1C#N)CC(=O)N3Cc1cccs1 |  | inconclusive: 18.3 µM [inhibitor, partial curve]
O=C(CC1SC(N2CCOCC2)=NC1=O)Nc1ccccc1Cl (stereo unspecified) | inactive: -0.416% | 
COc1ccc(CNCC(O)(c2ccc(Cl)cc2)c2ccc(Cl)cc2)cc1OC | inactive: 4.91% | 
O=C(NNc1nc(-c2ccccc2)cs1)c1ccco1 |  | inconclusive: 16.4 µM [activator, partial curve]
CCC(CC)NC(=O)COc1ccc(OC)cc1C=O | inactive: -13.1% | 
CC(=O)Nc1ccc(NC(=O)CN2CCCC(C)C2)c(Cl)c1 (stereo unspecified) |  | inconclusive: 16.4 µM [activator, partial curve]
COc1ccc(N2CCN(C(=O)CCS(=O)(=O)c3ccc4c(c3)NC(=O)CO4)CC2)cc1 | inactive: 0.113% | 
Cc1ccc(CCNC(=O)CN2C(=O)COc3ccc(S(=O)(=O)N4CCCCC4)cc32)cc1 |  | inconclusive: 8.2 µM [activator, partial curve, poor fit]
O=C(CCSCc1ccc(Cl)cc1)NC1CCCC1 | inactive: 12.3% | 
O=c1oc(/C=C/c2ccc([N+](=O)[O-])s2)nc2ccccc12 |  | inconclusive: 14.6 µM [activator, partial curve, poor fit]
COc1ccc(C2CC(c3ccccc3)=NN2C(=O)COC(=O)c2cccnc2Cl)cc1 (stereo unspecified) |  | inconclusive: 25.9 µM [inhibitor, single point]
O=c1cc(-c2ccccc2Cl)oc2c(NS(=O)(=O)c3ccccc3C(F)(F)F)ccc(O)c12 |  | inconclusive: 20.6 µM [inhibitor, partial curve, poor fit]
COC(=O)c1cn(-c2ccccc2)nc1-c1ccc(OC)cc1 |  | active: 25.9 µM
c1csc(-c2nnc(N3CCCCCC3)c3ccccc23)c1 |  | inconclusive: 29.1 µM [activator, single point]
O=C(Nc1ncc(Br)s1)C1CCCN1S(=O)(=O)c1cccc2cccnc12 (stereo unspecified) |  | inconclusive: 16.4 µM [activator, single point]
Cc1ccccc1C(=O)N[C@H](C(=O)Nc1ccc(Cl)c(Cl)c1)C(C)C |  | inconclusive: 16.4 µM [activator, partial curve]
O=C(CNC(=O)c1ccco1)NCc1ccc2c(c1)OCO2 |  | inconclusive: 29.1 µM [activator, partial curve, poor fit]
CN(C)S(=O)(=O)c1cccc(NC(=O)c2cccc(N3C(=O)CCC3=O)c2)c1 |  | inconclusive: 2.31 µM [inhibitor, single point]

An excerpt from above in order of number of heavy atoms, largest number first:
SMILES | activity change, negative = inhibition | Potency
c1csc(-c2nnc(N3CCCCCC3)c3ccccc23)c1 |  | inconclusive: 29.1 µM [activator, single point]
O=c1oc(/C=C/c2ccc([N+](=O)[O-])s2)nc2ccccc12 |  | inconclusive: 14.6 µM [activator, partial curve, poor fit]
O=C(NNc1nc(-c2ccccc2)cs1)c1ccco1 |  | inconclusive: 16.4 µM [activator, partial curve]
O=C(CCSCc1ccc(Cl)cc1)NC1CCCC1 | inactive: 12.3% | 

Next structures.

SMILES | activity change, negative = inhibition | Potency
CC1(C)S/C(=N/N=C/c2ccco2)NC1=O |  | inconclusive: 18.4 µM [activator, single point]
NCCCC[C@H]1CNC(=O)C(=O)N1CC1CCCCC1 | inactive: 24.3% | 
Cn1cccc1/C=C1\SC(=S)N(CC(=O)O)C1=O | inactive: 16.8% | 
CCC(=O)Nc1ccc(NC(=O)c2c(C)nc3ccccn23)cc1 |  | inconclusive: 29.1 µM [activator, partial curve, poor fit]
CCCC1=NCCn2cccc21 | inactive: -0.232% | 
CCCc1cc(=O)[nH]c(SCC(=O)Nc2ccc(OCc3ccccc3)cc2)n1 |  | inconclusive: 10.3 µM [activator, partial curve, poor fit]
FC(F)(F)c1ccccc1NC(=S)N1CCN(Cc2ccc3c(c2)OCO3)CC1 |  | inconclusive: 29.1 µM [inhibitor, single point]
Cc1cccc(NC(=O)c2nc[nH]c2C(=O)NC2CCN(C(=O)OC(C)(C)C)CC2)c1 |  | active: 25.9 µM
O=C(CN1CCN(Cc2ccc3c(c2)OCO3)CC1)Nc1cc(S(=O)(=O)N2CCCC2)ccc1Cl |  | inconclusive: 14.6 µM [inhibitor, single point]
O=C(/C=C/c1ccc([N+](=O)[O-])cc1)Nc1cccc(C(=O)Nc2ccccc2C(=O)O)c1 | inactive: -3.57% | 
CCCOc1ccc(S(=O)(=O)NCc2ccc(OC)cc2)cc1 |  | inconclusive: 25.9 µM [inhibitor, partial curve, poor fit]
COc1cccc2cc(NC(=O)C3CCCCC3)c(=O)oc12 |  | inconclusive: 2.59 µM [activator, full curve]
CCN(CC)S(=O)(=O)c1ccc2[nH]c(=O)cc(C(=O)Nc3cccc(C(C)=O)c3)c2c1 |  | inconclusive: 13 µM [inhibitor, partial curve]
CCN(c1ccc(C)cc1C)S(=O)(=O)c1nnc(NC(=O)C(C)(C)C)s1 | inactive: -2.75% | 
Cc1ccnc(NCc2cc(C)ccc2O)c1 |  | inconclusive: 23.1 µM [activator, single point]
C/C(=N\NC(=O)c1cccc(S(=O)(=O)N2CCCC2)c1)c1cccs1 |  | inconclusive: 23.1 µM [activator, partial curve]
Cc1ccc(-n2cnc3c(sc4nccc(N(C)C)c43)c2=O)cc1 |  | active: 10 µM
Cc1ccc(-c2nn3cnnc3c3ccccc23)cc1 | inactive: -2.46% | 
CSCCC(NC(=O)c1ccccc1)C(=O)Nc1ccc(NC(C)=O)cc1 (stereo unspecified) | inactive: 19% | 
O=C(NC1CC1)c1nc2c(nnn2Cc2ccccc2Cl)c(=O)[nH]1 |  | inconclusive: 25.9 µM [inhibitor, partial curve, poor fit]
COc1ccc2c(CCNC(=O)/C=C/c3ccc(OC)c(OC)c3)c[nH]c2c1 |  | active: 23.1 µM
O=C(COC(=O)Cc1c(Cl)cccc1Cl)Nc1ccc2[nH]c(=O)[nH]c2c1 | inactive: 3.98% | 
Cc1oc(-c2ccc(Cl)cc2)nc1CS(=O)CC(=O)NCCCN1CCN(Cc2ccccc2)CC1 (stereo unspecified) |  | inconclusive: 1.83 µM [inhibitor, partial curve]
